{"source": "patent US7045495B2", "about": "(Sloan-Kettering Institute for Cancer Research, priority 1996, dated 2006)", "system": "MKN-74 cells", "assay": "apoptosis by QFM, Hoechst-33258 staining", "assay_type": "cell-based, human", "conditions": "b481 summary; gastric cancer cells; flavopiridol 300 μM as printed", "description": "Apoptosis was measured by two different methods: (i) Quantitative fluorescent microscopy (QFM) of nuclear changes induced by apoptosis, as determined by bisbenzimide trihydrochloride (Hoescht-33258) staining of nuclear chromatin (15), and (ii) a terminal deoxynucleotidyl transferase (TdT) assay that labels the 3′-OH ends of DNA fragments produced in apoptotic cells (16). […] MMC was diluted in water. A stock safingol solution was constituted in DMSO and was subsequently diluted at least 1:100 in media for all experiments. […] For QFM determinations, the cells were fixed in 3% paraformaldehyde and incubated at room temperature for 10 minutes. […] Aliquots of the cells (10 μl) were placed on glass slides coated with 3-amino-propyl-triethoxysilane, and duplicate samples of 500 cells each were counted and scored for the incidence of apoptotic chromatin condensation using an Olympus BH-2 fluorescence microscope equipped with a BH2-DM2U2UV Dich. […] Green (d-dUTP labeled DNA strand breaks) and red (PI staining for total DNA content) fluorescence of individual cells were measured on a FACScan flow cytometer (Becton Dickinson, San Jose, Calif.). […] The R1 cursor was set using the control specimen to define normal levels of green fluorescence (i.e., basal levels of apoptosis). Cells with fluorescence above the R, cursor were considered apoptotic. […]\nApoptosis was again measured by QFM staining. […]", "note": "Structures can show the parent of a compound that is named as a salt. Some entries share one result that the patent states for a list of compounds.", "data": [{"smiles": "CN1CC[C@H](c2c(O)cc(O)c3c(=O)cc(-c4ccccc4Cl)oc23)[C@H](O)C1", "note": "(relative stereo) [flavopiridol, 2-(2-chlorophenyl)-5,7-dihydroxy-8-(cis-3-hydroxy-1-methyl-4-piperidinyl)-4H-1-benzopyran-4-one, hydrochloride]", "values": [{"measurement": "apoptosis of the cells treated", "result": "10% to 20%"}]}]}
